Literature values in US11639912B2, “Sensor and concentration measurement method” (PHC Holdings Corporation, priority 2009, dated 2023).
At least one structure is not confirmed: it was looked up by name or label, or the drawing left a doubt.

Settings: background statement; cited from earlier work

Question: With `NC(=O)c1ccc[n+]([C@@H]2O[C@H](COP(=O)([O-])OP(=O)(O)OC[C@H]3O[C@@H](n4cnc5c(N)ncnc54)[C@H](O)[C@@H]3O)[C@@H](O)[C@H]2O)c1` [NAD, nicotinamide adenine dinucleotide] as the molecule, how does the “redox potential of coenzymes and prior-art mediator” value read?
Answer: Its value is “approximately −520 mV”.
